Results taken from patent US6479509B1, “Method of promoting smoking cessation” (priority 2000, dated 2002).
For at least one compound, name, drawing or mass did not settle the structure.

The chains behind the UniProt entries cited, without tags or fusion partners. Residues count along the entry.
UniProt P09483, 31-630: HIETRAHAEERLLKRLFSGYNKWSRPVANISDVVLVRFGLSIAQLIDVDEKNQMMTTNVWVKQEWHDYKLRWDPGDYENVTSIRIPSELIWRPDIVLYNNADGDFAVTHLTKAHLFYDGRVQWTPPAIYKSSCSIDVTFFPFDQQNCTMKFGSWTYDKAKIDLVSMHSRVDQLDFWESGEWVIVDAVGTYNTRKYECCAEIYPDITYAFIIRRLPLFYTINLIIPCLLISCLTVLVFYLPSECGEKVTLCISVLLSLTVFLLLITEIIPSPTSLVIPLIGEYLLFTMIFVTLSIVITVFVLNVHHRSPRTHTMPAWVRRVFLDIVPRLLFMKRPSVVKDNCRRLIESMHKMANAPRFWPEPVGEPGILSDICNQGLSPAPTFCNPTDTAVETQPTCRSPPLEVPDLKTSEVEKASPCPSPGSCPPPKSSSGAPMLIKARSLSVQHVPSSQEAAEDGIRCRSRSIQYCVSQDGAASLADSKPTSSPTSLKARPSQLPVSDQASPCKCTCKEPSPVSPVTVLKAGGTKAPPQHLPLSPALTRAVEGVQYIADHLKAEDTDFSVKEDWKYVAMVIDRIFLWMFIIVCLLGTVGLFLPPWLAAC
UniProt P12390, 25-500: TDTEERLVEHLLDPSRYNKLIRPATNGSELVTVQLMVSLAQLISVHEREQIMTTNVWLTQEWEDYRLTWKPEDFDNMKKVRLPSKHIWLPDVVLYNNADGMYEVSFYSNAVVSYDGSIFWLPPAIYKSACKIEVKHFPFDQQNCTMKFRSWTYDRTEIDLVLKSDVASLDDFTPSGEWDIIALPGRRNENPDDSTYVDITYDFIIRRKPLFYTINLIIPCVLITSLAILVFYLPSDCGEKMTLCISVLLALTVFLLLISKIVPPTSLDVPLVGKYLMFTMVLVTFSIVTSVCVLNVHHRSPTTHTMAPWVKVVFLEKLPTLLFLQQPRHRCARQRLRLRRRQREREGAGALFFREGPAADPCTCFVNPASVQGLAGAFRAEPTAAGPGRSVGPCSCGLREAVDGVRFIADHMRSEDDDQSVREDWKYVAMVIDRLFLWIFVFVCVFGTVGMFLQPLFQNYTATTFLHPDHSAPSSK
UniProt P04757, 26-499: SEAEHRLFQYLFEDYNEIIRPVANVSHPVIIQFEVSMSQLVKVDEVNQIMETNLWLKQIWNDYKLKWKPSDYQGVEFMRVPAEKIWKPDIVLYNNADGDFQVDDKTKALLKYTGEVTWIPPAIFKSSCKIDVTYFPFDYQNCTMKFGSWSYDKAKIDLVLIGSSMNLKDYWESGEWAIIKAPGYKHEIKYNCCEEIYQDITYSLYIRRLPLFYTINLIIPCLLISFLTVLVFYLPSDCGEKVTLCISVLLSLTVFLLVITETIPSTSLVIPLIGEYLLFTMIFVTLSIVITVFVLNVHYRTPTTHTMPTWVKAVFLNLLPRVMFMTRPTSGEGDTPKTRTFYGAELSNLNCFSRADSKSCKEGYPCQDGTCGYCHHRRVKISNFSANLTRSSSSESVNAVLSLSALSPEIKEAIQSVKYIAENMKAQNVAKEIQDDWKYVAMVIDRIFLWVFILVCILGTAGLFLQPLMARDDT

Experiments:
[1] = system: nicotine-induced antinociception; experiment: Blockade of nicotine-induced antinociception, tail-flick test; format: in vivo; conditions: mice
Experimental: Anitinociception. The tail-flick method of D'Amour and Smith (1941) as modified by Dewey et al. (1970) was used. A control response (2-4 s) was determined for each animal before treatment, and a test latency was determined after drug administration. To minimize tissue damage, a maximum latency of 10 s was imposed. Antinociceptive response was calculated as percent maximum possible effect (% MPE), where % MPE=[((test-control)/(10-control))×100], Groups of 8 to 12 animals were used for each dose and for each treatment. Mice were tested 5 min after nicotine administration for the dose-response evaluation. Antagonism studies were carried out by pretreating the mice s.c. with either saline or various drugs at different times before nicotine. The animals were tested 5 min after administration of nicotine.
(§1) Data were analyzed statistically by an analysis of variance followed by the Fisher's P least-significant difference multiple comparison test. The null hypothesis was rejected at the […].

[2] = system: nicotine-induced hypothermia; experiment: Blockade of nicotine-induced hypothermia (body temperature); format: in vivo; conditions: mice
Experimental: Body Temperature. Rectal temperature was measured by a thermistor probe (inserted 24 mm) and digital thermometer (Yellow Springs Instrument Co., Yellow Springs, Ohio). Readings were taken just before and at 30 min after the s.c. injection of nicotine. For antagonism studies, mice were pretreated with either saline or various drugs 10 min before nicotine. The difference in rectal temperature before and after treatment was calculated for each mouse. The ambient temperature of the laboratory varied from 21 to 24° C. from day to day.
as §1

[3] = system: discriminative stimulus effect of nicotine; experiment: Nicotine drug discrimination; format: in vivo; conditions: rats
α4β2 receptors = target: T1, α4β2 receptors (Rattus norvegicus, UniProt P09483+P12390); experiment: Two-electrode voltage clamp, α4β2-expressing oocytes; format: cell-based
T1 construct: expressed in transfected cells; host or cells: Xenopus laevis oocytes injected with in vitro transcribed mRNA

α3β2 receptors = target: T2, α3β2 receptors (Rattus norvegicus, UniProt P04757+P12390); experiment: Two-electrode voltage clamp, α3β2-expressing oocytes; format: cell-based
T2 construct: expressed in transfected cells; host or cells: Xenopus laevis oocytes injected with in vitro transcribed mRNA

[4] = 100 μM applied for 10 s, oocytes

SMILES | Blockade of nicotine-induced antinociception (in words) [1] | Blockade of nicotine-induced hypothermia (in words) [2] | Blockade of discriminative stimulus effect of nicotine (in words) [3] | Current elicited by compound alone (α4β2 receptors; [4]) | Antagonism of nicotine-induced current (in words) (α4β2 receptors; coapplication with nicotine) | Current elicited by compound alone (α3β2 receptors; [4]) | Antagonism of nicotine-induced current (in words) (α3β2 receptors; coapplication with nicotine)
COC(=O)[C@H]1[C@@H](OC(=O)c2ccccc2)C[C@@H]2CC[C@H]1N2C [Cocaine] | produced dose dependent inhibition | produced little antagonism | failed to significantly block | elicited little current | antagonized the effects of nicotine in a concentration-related manner | elicited little current | antagonized the effects of nicotine in a concentration-related manner
Fc1ccc(C(OCCN2CCN(CCCc3ccccc3)CC2)c2ccc(F)cc2)cc1 [GBR 12909, reference compound] | dose-dependently blocked |  |  |  |  |  | 
